From patent US11497796B2, “Agents directed against a cis RGMa/neogenin interaction or lipid rafts and use of the same in methods of treatment” (UNIVERSITY HEALTH NETWORK, priority 2013, dated 2022)

B1: 4Ig: four immunoglobulin-like domains of Neogenin, amino acids 1 to 383 of Accession No. AAC59662 (SEQ ID NO:1) (protein, listed as Gallus gallus)
chain: RSGPRSPLTGSVVRTFTPFYFLVEPMDILSVRGASVIMNCSSYCETPPKIEWKKDGTLLNLVSDDRRQLLPDGSLLINSVVHSKHNKPDEGYYQCVATVESLGSIVSRTAKLTVAGLPRFTSQPELSSVYKGNSAILNCEVNVDLAPFVRWEQDRQPLSLDDRVFKLPSGALLIGNATDTDGGFYRCVIESGGTPKYSEEAELKILPDPEEPQSLVFVRQPSSLTKVTGQNAVFPCVAGGFPTPYVRWTKNGEELITEDSERFALRAGGSLLISDVTEEDVGTYTCIADNENETIEAQAELAVQVPPEFLKRPANIYAHESMDIVFECEVTGKPTPTVKWVKNGDVVIPSDYFKIVKEHNLQVLGLVKSDEGFYQCIAENDVGNAQAGAQLIILDLDVAIPTLPPTSLTSATNDHLAPATTGPLPTAPRDVVATLVSTRFIRLTWRTPVSDPQGDNLTYSIFYTKEGINRERVENTSRPGETQVMIQNLMPETVYVFRVVAQNKHGHGESSAPLKVATQPEVQLPGPAPNIRAYAGSPTSVTVTWETPLSGNGEIQNYKLYYMEKGQDSEQDVDVAGLSYTITGLKKYTEYSFRVVAYNKHGPGVSTQDVVVRTLSDVPSAAPQNLTLEARNSKSIMLHWQPPPAGTHSGQITGYKIRYRKVSRKSDVTESVGGTQLFQLIEGLERGTEYNFRIAAMTVNGTGPATDWVSAETFESDLDESRVPEVPSSLHVRPLVTSIVVSWTPPENQNIVVRGYAIGYGIGSPHAQTIKVDYKQRYYTIENLDPSSHYVITLKAFNNVGEGIPLYESAVTRPHSDTSEVDLFVINAPYTPVPDPSPMMPPVGVQASILSHDTIRITWADNSLPKNQKITDARYYTVRWKTNIPANTKYKTANATTLSYLVTGLKPNTLYEFSVMVTKGRRSSTWSMTAHGTTFELVPTSPPKDVTVVSKEGKPRTIIVNWQPPSEANGKITGYIIYYSTDVNAEIHDWVIEPVVGNRLTHQIQELTLDTPYYFKIQARNSKGMGPMSEAVQFRTPKAESSDKMPNDQASGSAGKGSRPVDVGPDYKPPLSGSNSPHGSPTSPLDSNMLLVIIVSVGVITIVIVVIVAVFCTRRTTSHQKKKRAACKSVNGSHKYKGNSKDVKPPDLWIHHERLELKPIDKSPDPNPIMTDTPIPRNSQDITPVDNSMDSNIHQRRNSYRGHESEDSMSTLAGRRGMRPKMMMPFDSQPPQPVISAHPIHSLDNPHHHFHSGSLASPTRSYLHHQVSPWPVGTSMSHSDRANSTESVRNTPSSDTMPASSSQPCADHQDPDSSSGAYLGSAQEEDAAQSLPTAHVRPSHPLKSFAVPAVPAAGSAYDPTLPSTPLLTQQAPSHPVHSVKTASIGTLGRTRPPMPVVVPSAPDVQETTRMLEDSESSYEPDELTKEMAHLEGLMKDLNAITTA
modifications: Neogenin - Accession No. AAC59662

Key:
[1] = test system: injured spinal cord; test: Spinal cord injury, immunostaining and quantitative analysis (NeuN, GFAP, lesion volume); type: in vivo, rat; settings: after SCI
[2] = test system: RGC axons in injured optic nerve; test: Optic nerve crush, RGC axon regeneration (GAP-43) and intraretinal integrity; type: in vivo, rat; settings: GFAP staining
Description: All animals were female Sprague-Dawley rats weighing 250-300 g, which were kept in a pathogen free environment. […] Injections were performed using a 10-μl Hamilton syringe actuated by a computer controlled Picopump (World Precision Instruments). […] The needle was left in place for 10 min after each injection and slowly withdrawn to prevent reflux of the injected solutions up the needle tract.
Additionally, for crushing nerve surgical procedures, animals were placed in a stereotaxic frame and ventilated with isoflurane (2%; 0.8 L/min O2) through a gas anesthesia mask. […] The optic nerve was crushed using fine self-closing forceps for 6 seconds. Eventually, the orbital contents were gently returned to their original location and the initial incision was closed. Following surgery, under a heat lamp, animal were maintained at 37° C. in the normothermic condition and they were given Ketoprofen (5 mg/mL, dosage for rats: 0.1 mL/100 g bodyweight) and sterile saline to ease postsurgical recovery.
In order to evaluate the effects of 4Ig, N-Raft, and MβCD on RGC survival and regeneration after optic nerve crush, 4 μl intraocular injection of 4Ig (250 ng/μl) and N-Raft (150 ng/μl) solutions were delivered at 3 and 10 days after injury. Additionally, these two groups received 4Ig and N-Raft in a dose of 1 mg/kg, via intrajugular vein at 3 and 10 days postcrush. Separately, animals in MβCD group, received intraperitoneal injection of MβCD at 1000 mg/kg/week for 3 weeks after nerve crush on a once-a-day schedule. […]
The slides were then rinsed three times for 15 minutes in PBS before cover slipping with 50:50 glycerol/PBS. The total number of regenerating axon growth cones within bins of the optic nerve, beginning anterior to the crush site and proceeding distally, were quantified. […] A total of four equally spaced sections through the width of each optic nerve were examined and quantified using a Leica DM LFSA microscope (20× objective) with an Andor iXon 885+ camera, with EMgain applied.

| Molecule | effect on astrocytes (staining) [1] | effect on astroglia cells [2] |
| --- | --- | --- |
| methyl-β-cyclodextrin [MβCD, reference compound] | did not affect these cell populations | not affected |
| N-Raft: peptide spanning amino acids 28-73 of RGMa (SEQ ID NO:2) (SPCKILKCNSEFWAATSGSHHLGAEETPEFCTALRAYAHCTRRTAR; N-Raft - amino acids 28-73 of RGMa) |  | not affected |
| B1 | did not affect these cell populations | not affected |
